The source of these data is paper PMC4039121.

Amino acid sequences for entries named in this document (tags omitted). A change or cut given only in a name is not applied to a line headed by its entry. Chains listed by the source or under a name are the forms on record and can include a tag or linker. Residues count along the entry.
Flag-tagged CHIP^ΔTPR (Q9UNE7, residues 226-300): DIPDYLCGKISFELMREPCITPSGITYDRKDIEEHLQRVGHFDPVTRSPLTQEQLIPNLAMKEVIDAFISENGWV

Results are given in words; binding and its absence hold for the method and conditions named. In cells and extracts the contact can be indirect. Some entries that bind do so weakly or less than the wild type.

For assay [1], the target named is Flag-tagged CHIP^ΔTPR (human) (UniProt Q9UNE7). Nature of the assay: co-IP; BxPC-3 cells co-transfected with His-EGFR and Flag-CHIP (full length or truncations) for 48 h, then MG132 (5 μM); immunoprecipitation with anti-Flag (or anti-His) antibody, protein A/G agarose beads; immunoblot with anti-His antibody. On the technique in general: In western blotting, separated proteins are transferred to a membrane and probed.

Assay [2] concerns the target Flag-tagged CHIP full length (CHIP^FL) (human) (UniProt Q9UNE7). Described as above.
The target in assay [3] is Carboxyl terminus of heat shock protein 70-interacting protein (CHIP), endogenous (human (endogenous in BxPC-3)) (UniProt Q9UNE7). The assay can be described thus: co-IP; endogenous proteins in BxPC-3 cells pretreated with MG132 (5 μM, 6 h by the legend); immunoprecipitation with CHIP or EGFR antibody, protein A/G agarose beads, modified RIPA buffer, 12 h at 4 °C; immunoblot.

As to “His-tagged EGFR (from UniProt P00533 25-1210) (receptor)”, the binding entry was “no binding” in assay [1] and “binds” in assay [2].

Take “epidermal growth factor receptor (EGFR), endogenous (from UniProt P00533 25-1210)”: in assay [3], the binding entry was “binds”.
